Experimental data: PubChem BioAssay AID686938 (Drosophila RNAi Screening Center, 2013)
In all, the deposit lists about 23,000 reagents; below is an unselected part of those with a known target gene and a result. Over the whole deposit, 75 (0.33%) were called active. 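Raw plate signals without normalisation; calls rest on plate z-scores that were not deposited; ratio present for only 364 wells.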 A plus sign joins genes that one reagent is predicted to hit. The record does not give: the dose of the treatment.

- Aim: 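Knock-downs reducing store-operated calcium influx in Drosophila cells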 (primary screen)
- Cells: Drosophila S2R+ cells
- Reagents: long dsRNA against Drosophila genes, about 0.25 µg dsRNA per well, roughly 10,000 cells
- Timing: 5 days of knock-down before the calcium assay
- Challenge: thapsigargin (SERCA pump blocker) to empty calcium stores; entry signal taken 4 min after adding it
- Measured: 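Duplicate raw fluo-4 intensities per well from a plate reader, at rest and four minutes after thapsigargin emptied calcium stores; entry-to-rest ratio filled for only some wells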
- Scale: calcium entry signal: higher = stronger calcium signal after store depletion; resting calcium signal: higher = higher resting calcium signal
- Units: calcium entry signal in fluorescence units; resting calcium signal in fluorescence units
- Call rule: 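Called when the plate z-score of the entry-to-rest ratio, mean of duplicates, falls below −3; wells with low overall dye signal (Fmax z below −2) or more than five off-targets excluded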
- Meaning of the calls: active = strongly reduced calcium entry; inactive = no strong reduction

After knock-down of CG43777 + CG43776 + CG43775 [DRSC04206], the screen gave calcium entry signal, replicate 1 = 3.34e7; calcium entry signal, replicate 2 = 4.22e7; resting calcium signal, replicate 1 = 1.73e7; resting calcium signal, replicate 2 = 1.92e7; inactive.
Knock-down of Or65c [DRSC21312] resulted in: calcium entry signal, replicate 1 = 2.62e7; calcium entry signal, replicate 2 = 2.63e7; resting calcium signal, replicate 1 = 1.48e7; resting calcium signal, replicate 2 = 1.14e7; inactive.
Depletion of CG10344 [DRSC04066] resulted in: calcium entry signal, replicate 1 = 2.03e7; calcium entry signal, replicate 2 = 2.99e7; resting calcium signal, replicate 1 = 1.07e7; resting calcium signal, replicate 2 = 1.27e7; inactive.
Depletion of CG8369 [DRSC16413] came out at: calcium entry signal, replicate 1 = 4.17e7; calcium entry signal, replicate 2 = 3.12e7; resting calcium signal, replicate 1 = 2.05e7; resting calcium signal, replicate 2 = 1.49e7; inactive.
CG12877 [DRSC14565] showed calcium entry signal, replicate 1 = 2.62e7; calcium entry signal, replicate 2 = 3.14e7; resting calcium signal, replicate 1 = 1.28e7; resting calcium signal, replicate 2 = 1.35e7; inactive.

A few values from the entries so far:
For “calcium entry signal, replicate 1”, CG12877 [DRSC14565] is entered as 2.62e7
CG10344 [DRSC04066], Call → inactive

Continued:
For Nup188 [DRSC21830] the deposit lists calcium entry signal, replicate 1 = 3.23e7; calcium entry signal, replicate 2 = 3.25e7; resting calcium signal, replicate 1 = 2.00e7; resting calcium signal, replicate 2 = 1.65e7; inactive.
With knock-down of CG32206 [DRSC09602], the screen gave calcium entry signal, replicate 1 = 3.17e7; calcium entry signal, replicate 2 = 4.89e7; resting calcium signal, replicate 1 = 1.73e7; resting calcium signal, replicate 2 = 2.13e7; inactive.
Knock-down of CG32206 [DRSC10094] resulted in: calcium entry signal, replicate 1 = 2.56e7; calcium entry signal, replicate 2 = 4.27e7; resting calcium signal, replicate 1 = 1.20e7; resting calcium signal, replicate 2 = 1.78e7; inactive.
CG32206 [DRSC10095] gave calcium entry signal, replicate 1 = 2.40e7; calcium entry signal, replicate 2 = 4.24e7; resting calcium signal, replicate 1 = 1.19e7; resting calcium signal, replicate 2 = 1.83e7; inactive.
Knock-down of CG32206 [DRSC10096] resulted in: calcium entry signal, replicate 1 = 2.33e7; calcium entry signal, replicate 2 = 4.14e7; resting calcium signal, replicate 1 = 1.18e7; resting calcium signal, replicate 2 = 1.77e7; inactive.
Knock-down of CG32206 [DRSC11080] resulted in: calcium entry signal, replicate 1 = 2.23e7; calcium entry signal, replicate 2 = 4.04e7; resting calcium signal, replicate 1 = 1.10e7; resting calcium signal, replicate 2 = 1.71e7; inactive.
Against mib2 [DRSC02623] the deposit lists calcium entry signal, replicate 1 = 4.38e7; resting calcium signal, replicate 1 = 2.20e7; inactive.
